These are yes or no findings as the source states them, for the method shown. In cells and extracts the contact can be indirect. Binding can be weak; no strength is given. Sequences can lack the tags named with a protein.
Key:
[1] = biological target: T1, SCI1-GFP (Nicotiana tabacum); experiment: co-IP; stigma/style extract of 35Sprom::SCI1-GFP plants mixed with E. coli extract of HIS-14-3-3D2; monoclonal anti-GFP, 4°C 2 h, Protein G Sepharose; six washes; immunoblot anti-HIS or anti-HIS-SCI1
T1 sequence: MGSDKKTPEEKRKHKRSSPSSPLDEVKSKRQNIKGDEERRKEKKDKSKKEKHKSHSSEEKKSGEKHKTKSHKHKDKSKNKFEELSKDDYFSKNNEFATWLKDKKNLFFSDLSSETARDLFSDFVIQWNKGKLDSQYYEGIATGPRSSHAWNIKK

[2] = biological target: T2, GST-SCI1 (Nicotiana tabacum); experiment: pull-down; E. coli soluble extracts mixed and incubated overnight at 4°C with Glutathione Sepharose 4 FastFlow; washed three times with PBS + 1 mM PMSF; immunoblot anti-GST or anti-HIS
T2 sequence: T1 sequence

[3] = biological target: T3, SCI1-nGFP (BiFC fusion) (Nicotiana tabacum); experiment: split reporter; BiFC with split GFP (nGFP 1-149, cGFP 150-238), 35S promoter, transient expression in N. benthamiana leaves, confocal microscopy with DAPI; SCI1 with 14-3-3D seen only in cells at G2/prophase
T3 sequence: T1 sequence

binding [1] | binding [2] | binding [3] | Substance
binds | binds | – | HIS-14-3-3D2 (Nicotiana tabacum)
– | – | binds | 14-3-3D-nGFP / 14-3-3D-cGFP (BiFC fusions) (Nicotiana tabacum)

— article PMC9013909
